Laboratory results published in the supplement of paper PMC11438910.
Some of the results follow. Most of these values are background signal.

How the values were obtained:
Experiment in all cases: fluorescence intensity of antibody binding to polysaccharide-coupled beads; higher = stronger binding
[1] = target: pneumococcal polysaccharide Pn44
Experimental: (§1)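 Recombinant rhesus-murine chimeric IgG1 antibodies were tested against antigen-coupled MagPlex beads in a 96-plex Luminex direct immunoassay (dLIA). The beads carried pneumococcal capsular polysaccharides of 93 serotypes plus C-polysaccharides. Antibody was added at 0.1–12,500 ng/mL for 1 h, then PE anti-mouse IgG, and net MFI was read on a Bio-Plex 3D. Only the rhesus variable regions are printed; constant regions are murine IgG1/kappa/lambda, and the signal peptide is MGWSCIILFLVATATGVHS.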

[2] = target: pneumococcal polysaccharide Pn45
Experimental: as §1

[3] = target: pneumococcal polysaccharide Pn46
Experimental: as §1

[4] = target: pneumococcal polysaccharide Pn47A
Experimental: as §1

[5] = target: pneumococcal polysaccharide Pn47F
Experimental: as §1

[6] = target: pneumococcal polysaccharide Pn48
Experimental: as §1

[7] = target: pneumococcal polysaccharide Pn5
Experimental: as §1

[8] = target: pneumococcal polysaccharide Pn6A
Experimental: as §1

[9] = target: pneumococcal polysaccharide Pn6B
Experimental: as §1

[10] = target: pneumococcal polysaccharide Pn6C
Experimental: as §1

[11] = target: pneumococcal polysaccharide Pn6D
Experimental: as §1

[12] = target: pneumococcal polysaccharide Pn7A
Experimental: as §1

[13] = target: pneumococcal polysaccharide Pn7B
Experimental: as §1

[14] = target: pneumococcal polysaccharide Pn7C
Experimental: as §1

[15] = target: pneumococcal polysaccharide Pn7F
Experimental: as §1

[16] = target: pneumococcal polysaccharide Pn8
Experimental: as §1

[17] = target: pneumococcal polysaccharide Pn9A
Experimental: as §1

[18] = target: pneumococcal polysaccharide Pn9L
Experimental: as §1

[19] = target: pneumococcal polysaccharide Pn9N
Experimental: as §1

[20] = target: pneumococcal polysaccharide Pn9V
Experimental: as §1

[21] = antibody concentration 0.1 ng/mL
[22] = antibody concentration 0.534724 ng/mL
[23] = antibody concentration 2.8593 ng/mL
[24] = antibody concentration 15.2894 ng/mL
[25] = antibody concentration 81.7561 ng/mL
[26] = antibody concentration 437.17 ng/mL
[27] = antibody concentration 2337.65 ng/mL
[28] = antibody concentration 12500 ng/mL

B1: 4-99.4 (protein)
chain 1: QVQLQESGPGLVKPSETLSLTCAVSGYSISSAYFWGWIRQPPGKGLEYIGYISGEGGKSYYNPSLMSRVTISKDTSKNQFSLKLNTVTAADTAVYYCARRAILVGFDLWGQGVLVTVSS
chain 2: QAAPTQPPSVSGSPGQSVTISCTGSNSDIGYYNAVSWYQQHPGKAPKLMIYEVSKRPSGVSDRLTGSKSGNTASLTISGLQAEDEADYYCSSYAGSNTYIFGTGTRLTVL
fluorescence intensity [1, 21]: 25 MFI | fluorescence intensity [1, 22]: 26.5 MFI | fluorescence intensity [1, 23]: 26 MFI | fluorescence intensity [1, 24]: 25 MFI | fluorescence intensity [1, 25]: 26 MFI | fluorescence intensity [1, 26]: 25.5 MFI | fluorescence intensity [1, 27]: 26.5 MFI | fluorescence intensity [1, 28]: 35 MFI | fluorescence intensity [2, 21]: 12.5 MFI | fluorescence intensity [2, 22]: 11 MFI | fluorescence intensity [2, 23]: 12 MFI | fluorescence intensity [2, 24]: 11 MFI | fluorescence intensity [2, 25]: 11.5 MFI | fluorescence intensity [2, 26]: 12.2 MFI | fluorescence intensity [2, 27]: 13 MFI | fluorescence intensity [2, 28]: 19 MFI | fluorescence intensity [3, 21]: 23.5 MFI | fluorescence intensity [3, 22]: 24.5 MFI | fluorescence intensity [3, 23]: 25.5 MFI | fluorescence intensity [3, 24]: 24.5 MFI | fluorescence intensity [3, 25]: 24.5 MFI | fluorescence intensity [3, 26]: 24.2 MFI | fluorescence intensity [3, 27]: 27 MFI | fluorescence intensity [3, 28]: 57.5 MFI | fluorescence intensity [4, 21]: 16 MFI | fluorescence intensity [4, 22]: 17 MFI | fluorescence intensity [4, 23]: 16.5 MFI | fluorescence intensity [4, 24]: 17 MFI | fluorescence intensity [4, 25]: 15.8 MFI | fluorescence intensity [4, 26]: 15.5 MFI | fluorescence intensity [4, 27]: 17 MFI | fluorescence intensity [4, 28]: 24 MFI | fluorescence intensity [5, 21]: 12 MFI | fluorescence intensity [5, 22]: 12 MFI | fluorescence intensity [5, 23]: 12.5 MFI | fluorescence intensity [5, 24]: 13.5 MFI | fluorescence intensity [5, 25]: 11.5 MFI | fluorescence intensity [5, 26]: 12.2 MFI | fluorescence intensity [5, 27]: 14 MFI | fluorescence intensity [5, 28]: 42.8 MFI | fluorescence intensity [6, 21]: 20.5 MFI | fluorescence intensity [6, 22]: 23 MFI | fluorescence intensity [6, 23]: 24.5 MFI | fluorescence intensity [6, 24]: 23 MFI | fluorescence intensity [6, 25]: 24 MFI | fluorescence intensity [6, 26]: 26 MFI | fluorescence intensity [6, 27]: 25.8 MFI | fluorescence intensity [6, 28]: 56.5 MFI | fluorescence intensity [7, 21]: 8.5 MFI | fluorescence intensity [7, 22]: 8 MFI | fluorescence intensity [7, 23]: 9 MFI | fluorescence intensity [7, 24]: 8 MFI | fluorescence intensity [7, 25]: 9 MFI | fluorescence intensity [7, 26]: 9.5 MFI | fluorescence intensity [7, 27]: 12.5 MFI | fluorescence intensity [7, 28]: 48 MFI | fluorescence intensity [8, 21]: 21.5 MFI | fluorescence intensity [8, 22]: 22.5 MFI | fluorescence intensity [8, 23]: 22.5 MFI | fluorescence intensity [8, 24]: 22.5 MFI | fluorescence intensity [8, 25]: 21.8 MFI | fluorescence intensity [8, 26]: 23.2 MFI | fluorescence intensity [8, 27]: 27 MFI | fluorescence intensity [8, 28]: 40.8 MFI | fluorescence intensity [9, 21]: 21 MFI | fluorescence intensity [9, 22]: 20 MFI | fluorescence intensity [9, 23]: 21.5 MFI | fluorescence intensity [9, 24]: 20 MFI | fluorescence intensity [9, 25]: 21.2 MFI | fluorescence intensity [9, 26]: 21.5 MFI | fluorescence intensity [9, 27]: 25 MFI | fluorescence intensity [9, 28]: 36.5 MFI | fluorescence intensity [10, 21]: 21 MFI | fluorescence intensity [10, 22]: 46 MFI | fluorescence intensity [10, 23]: 56 MFI | fluorescence intensity [10, 24]: 70.8 MFI | fluorescence intensity [10, 25]: 67.2 MFI | fluorescence intensity [10, 26]: 64 MFI | fluorescence intensity [10, 27]: 108 MFI | fluorescence intensity [10, 28]: 97.2 MFI | fluorescence intensity [11, 21]: 19.5 MFI | fluorescence intensity [11, 22]: 17.5 MFI | fluorescence intensity [11, 23]: 16.5 MFI | fluorescence intensity [11, 24]: 19 MFI | fluorescence intensity [11, 25]: 15.5 MFI | fluorescence intensity [11, 26]: 17.5 MFI | fluorescence intensity [11, 27]: 20.2 MFI | fluorescence intensity [11, 28]: 25 MFI | fluorescence intensity [12, 21]: 21.5 MFI | fluorescence intensity [12, 22]: 20 MFI | fluorescence intensity [12, 23]: 20.8 MFI | fluorescence intensity [12, 24]: 20 MFI | fluorescence intensity [12, 25]: 20 MFI | fluorescence intensity [12, 26]: 22.5 MFI | fluorescence intensity [12, 27]: 31 MFI | fluorescence intensity [12, 28]: 138 MFI | fluorescence intensity [13, 21]: 18.5 MFI | fluorescence intensity [13, 22]: 16 MFI | fluorescence intensity [13, 23]: 17.5 MFI | fluorescence intensity [13, 24]: 16.2 MFI | fluorescence intensity [13, 25]: 15.5 MFI | fluorescence intensity [13, 26]: 16.5 MFI | fluorescence intensity [13, 27]: 18.5 MFI | fluorescence intensity [13, 28]: 36.5 MFI | fluorescence intensity [14, 21]: 17.5 MFI | fluorescence intensity [14, 22]: 14.2 MFI | fluorescence intensity [14, 23]: 15.8 MFI | fluorescence intensity [14, 24]: 16.8 MFI | fluorescence intensity [14, 25]: 17 MFI | fluorescence intensity [14, 26]: 16 MFI | fluorescence intensity [14, 27]: 17.5 MFI | fluorescence intensity [14, 28]: 31.5 MFI | fluorescence intensity [15, 21]: 15.5 MFI | fluorescence intensity [15, 22]: 15 MFI | fluorescence intensity [15, 23]: 16.5 MFI | fluorescence intensity [15, 24]: 14.5 MFI | fluorescence intensity [15, 25]: 15 MFI | fluorescence intensity [15, 26]: 16.5 MFI | fluorescence intensity [15, 27]: 21.5 MFI | fluorescence intensity [15, 28]: 95.5 MFI | fluorescence intensity [16, 21]: 22.5 MFI | fluorescence intensity [16, 22]: 21.5 MFI | fluorescence intensity [16, 23]: 23.2 MFI | fluorescence intensity [16, 24]: 22 MFI | fluorescence intensity [16, 25]: 22.5 MFI | fluorescence intensity [16, 26]: 25.5 MFI | fluorescence intensity [16, 27]: 28.2 MFI | fluorescence intensity [16, 28]: 48.5 MFI | fluorescence intensity [17, 21]: 21 MFI | fluorescence intensity [17, 22]: 20.5 MFI | fluorescence intensity [17, 23]: 19.5 MFI | fluorescence intensity [17, 24]: 19 MFI | fluorescence intensity [17, 25]: 19.2 MFI | fluorescence intensity [17, 26]: 20.5 MFI | fluorescence intensity [17, 27]: 21.5 MFI | fluorescence intensity [17, 28]: 43.2 MFI | fluorescence intensity [18, 21]: 18 MFI | fluorescence intensity [18, 22]: 18.5 MFI | fluorescence intensity [18, 23]: 18.5 MFI | fluorescence intensity [18, 24]: 19 MFI | fluorescence intensity [18, 25]: 17.2 MFI | fluorescence intensity [18, 26]: 16 MFI | fluorescence intensity [18, 27]: 20 MFI | fluorescence intensity [18, 28]: 32 MFI | fluorescence intensity [19, 21]: 17 MFI | fluorescence intensity [19, 22]: 17 MFI | fluorescence intensity [19, 23]: 17 MFI | fluorescence intensity [19, 24]: 16.5 MFI | fluorescence intensity [19, 25]: 15.2 MFI | fluorescence intensity [19, 26]: 17 MFI | fluorescence intensity [19, 27]: 18.5 MFI | fluorescence intensity [19, 28]: 32 MFI | fluorescence intensity [20, 21]: 15.5 MFI | fluorescence intensity [20, 22]: 15 MFI | fluorescence intensity [20, 23]: 14.5 MFI | fluorescence intensity [20, 24]: 16 MFI | fluorescence intensity [20, 25]: 16 MFI | fluorescence intensity [20, 26]: 15.5 MFI | fluorescence intensity [20, 27]: 16.5 MFI | fluorescence intensity [20, 28]: 26.5 MFI
